{"source": "paper doi:10.1101/2024.05.23.595269", "key": {"[1]": {"target": "T1, full-length light chain 5 (MLC-5) (C. elegans) (UniProt Q9XVI9)", "T1 sequence": "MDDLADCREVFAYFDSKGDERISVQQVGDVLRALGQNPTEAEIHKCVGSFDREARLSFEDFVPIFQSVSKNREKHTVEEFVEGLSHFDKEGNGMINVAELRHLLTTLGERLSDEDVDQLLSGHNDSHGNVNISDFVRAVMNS", "experiment": "affinity co-purification"}, "[2]": {"target": "T2, full-length light chain 4 (MLC-4) (C. elegans) (UniProt Q09510)", "T2 sequence": "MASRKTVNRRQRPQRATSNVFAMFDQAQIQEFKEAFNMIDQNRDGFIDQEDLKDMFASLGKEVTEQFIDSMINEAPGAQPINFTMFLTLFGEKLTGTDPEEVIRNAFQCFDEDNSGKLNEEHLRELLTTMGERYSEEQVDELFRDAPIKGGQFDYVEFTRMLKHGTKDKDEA", "experiment": "affinity co-purification"}}, "note": "These are yes or no findings as the source states them, for the method shown. Binding seen in cells or lysates may run through a third protein. Binding calls can cover weak binding; strength is not graded here.", "data": [{"substance": "heavy meromyosin (HMM) fragment of C. elegans NMY-2 (1-1364 aa) (domain or fragment)", "values": [{"measurement": "binding", "setting": "[1]", "result": "binds"}, {"measurement": "binding", "setting": "[2]", "result": "binds"}]}]}
